{"sequences": {"note": "Chains of the proteins cited; added tags and fusions are not shown. Lines headed by an entry give the natural chain unless they say otherwise; changes in a name come on top.", "UniProt P60484": "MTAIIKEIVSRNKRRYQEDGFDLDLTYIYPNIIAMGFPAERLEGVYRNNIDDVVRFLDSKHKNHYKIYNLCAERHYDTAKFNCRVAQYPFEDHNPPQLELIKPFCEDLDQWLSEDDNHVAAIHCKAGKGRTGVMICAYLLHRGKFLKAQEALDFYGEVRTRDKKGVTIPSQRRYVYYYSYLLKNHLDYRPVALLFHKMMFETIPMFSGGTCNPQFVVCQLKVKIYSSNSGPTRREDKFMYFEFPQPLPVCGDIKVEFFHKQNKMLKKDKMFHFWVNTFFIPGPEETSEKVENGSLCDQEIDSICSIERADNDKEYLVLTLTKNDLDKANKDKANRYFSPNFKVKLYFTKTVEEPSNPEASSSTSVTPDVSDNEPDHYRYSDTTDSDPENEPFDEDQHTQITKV"}, "source": "PubChem BioAssay (EPA / NIEHS)", "note": "This list was built around the results that the source calls inconclusive (neither active nor inactive); the mix of calls is not that of the screen. Where the call is inconclusive, the potency comes from a doubtful curve fit. The source made the active and inactive calls. The calls were made as follows: active = hit-call score of the fitted dose curve at least 0.9, where 1 is the maximum; inconclusive = response in the unintended direction; inactive = score below 0.9."}
{"molecular_target": "human Phosphatase and Tensin Homolog (PTEN), PTEN (gene 5728) (UniProt P60484)", "experiment": "NVS_ENZ_hPTEN: NovaScreen (NVS) Enzymatic Assay for human Phosphatase and Tensin Homolog (PTEN) (AID 2283203)", "summary_of_the_method": "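Cell-free recombinant human PTEN with fluorescent substrate; product separated by electrophoretic mobility shift and read by fluorescence 1 h after dosing. Primary screen in duplicate at 25 uM, actives followed in concentration series versus DMSO.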"}
{"smiles": "OCCC(O)CO", "note": "(centres undefined)", "AC50": "active: 14700 nM"}
{"smiles": "NC(=O)N(O)[C@@H]1C=C[C@H](Oc2cccc(Oc3ccc(F)cc3)c2)C1", "outcome": "inactive"}
{"smiles": "CCN(CC)c1ccc(C=O)c(O)c1", "AC50": "inconclusive: 6460 nM"}
{"smiles": "O=[N+]([O-])c1ccc(CO)cc1", "outcome": "inactive"}
{"smiles": "CCN(CC)c1ccc(C=O)cc1", "AC50": "inconclusive: 192 nM"}
{"smiles": "CCCCCCCCC(C)=O", "outcome": "inactive"}
{"smiles": "CC(C)c1ccccc1N", "AC50": "active: 12400 nM"}
{"smiles": "CN1CN(C)CN(C)C1", "AC50": "inconclusive: 25000 nM"}
{"smiles": "C1CCSC1", "AC50": "inconclusive: 1370 nM"}
{"smiles": "NCc1ccco1", "AC50": "inconclusive: 2.29 nM"}
{"smiles": "O=C1O[C@H]([C@H](O)CO)C(O)=C1O", "AC50": "inconclusive: 811 nM"}
{"smiles": "CC1(C)C(=O)N(CO)C(=O)N1CO", "AC50": "inconclusive: 6510 nM"}
{"smiles": "CCCCCCCCCCCCCCCC", "outcome": "inactive"}
{"smiles": "O[Si](c1ccccc1)(c1ccccc1)c1ccccc1", "AC50": "active: 10600 nM"}
{"smiles": "CS(C)(=O)=O", "AC50": "inconclusive: 432 nM"}
{"smiles": "Nc1c(Br)cc([N+](=O)[O-])cc1Br", "AC50": "inconclusive: 182 nM"}
{"smiles": "CCOC(C=C(C)CCC=C(C)C)OCC", "outcome": "inactive"}
{"smiles": "N#CCCOCCC#N", "AC50": "inconclusive: 21.5 nM"}
{"smiles": "C=C(C)CCO", "outcome": "inactive"}
{"smiles": "Nc1ccc(N)c([N+](=O)[O-])c1", "AC50": "inconclusive: 2.29 nM"}
{"smiles": "O=C(NCc1ncc(C(F)(F)F)cc1Cl)c1c(Cl)cccc1Cl", "AC50": "inconclusive: 276 nM"}
{"smiles": "CN(CCOc1ccc(CC2SC(=O)NC2=O)cc1)c1ccccn1", "note": "(centres undefined)", "outcome": "inactive"}
{"smiles": "CCCCCCCC(C)=O", "AC50": "inconclusive: 293 nM"}
{"smiles": "CCN(CC)c1cccc(C)c1", "AC50": "inconclusive: 115 nM"}
{"smiles": "NC(=O)c1ccccc1Cl", "outcome": "inactive"}
{"smiles": "Oc1c(Cl)cc(Cl)c(Cl)c1Cc1c(O)c(Cl)cc(Cl)c1Cl", "AC50": "inconclusive: 155 nM"}
{"smiles": "O=C[C@H](O)[C@H](O)[C@H](O)CO", "AC50": "inconclusive: 25000 nM"}
{"smiles": "CCc1ccc(C)nc1", "AC50": "inconclusive: 25000 nM"}
{"smiles": "C=CC(=O)OCC(Br)CBr", "note": "(centres undefined)", "outcome": "inactive"}
{"smiles": "CCCCCCCCCCc1ccccc1", "outcome": "inactive"}
{"smiles": "Cc1cc(C)c(O)c(C(C)(C)C)c1", "AC50": "inconclusive: 73.5 nM"}
{"smiles": "O=C(Cl)c1ccc(Cl)cc1Cl", "AC50": "inconclusive: 6040 nM"}
{"smiles": "CC(C)(C)c1cc(CCC(=O)NCCCCCCNC(=O)CCc2cc(C(C)(C)C)c(O)c(C(C)(C)C)c2)cc(C(C)(C)C)c1O", "AC50": "inconclusive: 6110 nM"}
{"smiles": "CCCCCCCC(=O)OCC", "AC50": "inconclusive: 149 nM"}
{"smiles": "C=Cc1ccncc1", "AC50": "inconclusive: 918 nM"}
{"smiles": "CCn1c2ccccc2c2ccccc21", "AC50": "inconclusive: 404 nM"}
{"smiles": "N#CCCCC(C#N)CCC#N", "note": "(centres undefined)", "AC50": "inconclusive: 5980 nM"}
{"smiles": "CCc1cccc(CC)c1N(COC)C(=O)CS(=O)(=O)O", "outcome": "inactive"}
{"smiles": "CCCCCc1ccc(O)cc1", "AC50": "inconclusive: 154 nM"}
